Consider 37 compounds from the supplement of paper PMC8256030.

Where “and” joins values, the source holds several entries; their conditions need not be identical. Equal entries are not always repeated. The list shows a part of the results. This data set is noisy: repeats of one test often differ as much as different tests do.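 HEK293T cells were given each compound shortly before transfection with a reporter in which red mCherry is followed by the SARS-CoV-2 frameshift element and then GFP in the −1 frame, so GFP appears only after frameshifting.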

The subject of the test is HEK293T. The test can be described thus: percent viability (nuclei count) relative to control; higher = more viable cells. The settings on record: 10 µM; 24 h.
Take `Nc1nc(=O)n([C@@H]2CS[C@H](CO)O2)cc1F` [emtricitabine]: the percent viability came to 153%.

Consider `CC(C)(Oc1ccc(CCNC(=O)c2ccc(Cl)cc2)cc1)C(=O)O` [bezafibrate], for which the percent viability is 284% and 119%.

Take `Clc1ccc2c(c1)C(N1CCNCC1)=Nc1ccccc1O2` [amoxapine]: the percent viability is 186% and 404%.

As for `O=C1NCC2(CCN(CCc3ccccc3)CC2)O1` [Fenspiride], the percent viability came out at 353%.

As for `CC(C)(O/N=C(\C(=O)N[C@@H]1C(=O)N2C(C(=O)[O-])=C(C[n+]3ccccc3)CS[C@H]12)c1csc(N)n1)C(=O)O` [Fortaz], the percent viability came out at 186%.

On to `CC[C@H](C)C[C@H](C)CCCCCCCCC(=O)N[C@H]1C[C@@H](O)[C@@H](NCCN)NC(=O)[C@@H]2[C@@H](O)CCN2C(=O)[C@H]([C@H](O)CCN)NC(=O)[C@H]([C@H](O)[C@@H](O)c2ccc(O)cc2)NC(=O)[C@@H]2C[C@@H](O)CN2C(=O)[C@H]([C@@H](C)O)NC1=O` [Cancidas], for which the percent viability amounted to 189%.

For the compound `Brc1c(NC2=NCCN2)ccc2nccnc12` [brimonidine], the percent viability turned out to be 166%.

As for `CN(C)c1ccc(O)c2c1C[C@H]1C[C@H]3[C@H](N(C)C)C(=O)C(C(N)=O)=C(O)[C@@]3(O)C(=O)C1=C2O`, the percent viability was determined as 265%.

Turning to `Cc1cc(Cl)c(S(N)(=O)=O)cc1S(N)(=O)=O` [disulfamide], the percent viability was determined as 124%.

For the compound `O=C(Nc1ccc([N+](=O)[O-])cc1Cl)c1cc(Cl)ccc1O` [niclosamide], the percent viability turned out to be 381%.

Regarding `CCCCCCNC(=O)n1cc(F)c(=O)[nH]c1=O` [carmofur], the percent viability worked out at 322%.

For the compound `COc1ccc2c(O[C@@H]3C[C@H]4C(=O)N[C@]5(C(=O)O)C[C@@H]5/C=C\CCCCC[C@H](NC(=O)OC5CCCC5)C(=O)N4C3)cc(-c3csc(NC(=O)C(C)C)n3)nc2c1C`, the percent viability was 99.4%.

`C=C(C#N)C(=O)OCCCC` [enbucrilate]: the percent viability is 139%.

On to `NCCCC[C@H](NC(=O)[C@@H]1CCCN1C(=O)[C@@H]1CSSC[C@H](NC(=O)CNC(=O)CNC(=O)CN)C(=O)N[C@@H](Cc2ccc(O)cc2)C(=O)N[C@@H](Cc2ccccc2)C(=O)N[C@@H](CCC(N)=O)C(=O)N[C@@H](CC(N)=O)C(=O)N1)C(=O)NCC(N)=O` [terlipressin], for which the percent viability is 193%.

As for `NCCCCC(N)C(=O)O` (configuration not stated), the percent viability is 221% and 213%.

As for `NS(=O)(=O)c1ccc(NC(=O)OCCO)cc1` [sulocarbilate], the percent viability was found to be 118%.

Regarding `C[C@H]1O[C@H](O[C@H]2[C@H](O)[C@@H](O)[C@@H](O[C@@H]([C@H](O)[C@@H](O)C=O)[C@H](O)CO)O[C@@H]2CO)[C@H](O)[C@@H](O)[C@@H]1N[C@H]1C=C(CO)[C@@H](O)[C@H](O)[C@H]1O` [acarbose], the percent viability was 348% and 203%.

Consider `Cc1cc(=O)n(-c2ccccc2)n1C`, for which the percent viability was found to be 322%.

For `CC1=CC(=O)NS(=O)(=O)O1` [acesulfame], the percent viability came to 142%.

Take `CCCCn1c(=O)c2c(ncn2CC(C)=O)n(CCCC)c1=O` [denbufylline]: the percent viability was determined as 270%.

On to `N=C(N=C(N)N)N1CCOCC1`, for which the percent viability was determined as 226%.

With `Cc1[nH]cnc1-c1ccc(Cl)cc1` [lofemizole], the percent viability stood at 93.6%.

With `O=C(CCCCCCC(=O)Nc1ccccc1)NO` [vorinostat], the percent viability turned out to be 4.55%.

Take `CCN1CCCC(OC(=O)C(c2ccccc2)c2ccccc2)C1` (configuration not stated): the percent viability came to 434%.

In the case of `Oc1ccc(Cl)c2c1CCC2` [clorindanol], the percent viability turned out to be 192%.

Take `CNc1cc(OC)c(C(=O)NC2CCN(Cc3ccccc3)C2C)cc1Cl` (configuration not stated) [nemonapride]: the percent viability worked out at 188%.

Take `COC(=O)[C@@H](N)CS`: the percent viability stood at 469%.

Turning to `C[N+](C)(CCOc1ccccc1)Cc1cccs1` [thenium closilate], the percent viability is 63.5%.

For `CC1=C(C(=O)O)N2C(=O)[C@@H](NC(=O)[C@H](N)c3ccc(O)cc3)[C@H]2SC1` [cefadroxil], the percent viability came to 191%.

`CC/C=C\C/C=C\C/C=C\C/C=C\C/C=C\CCCC(=O)O` [icosapent]: the percent viability was determined as 209%.

On to `CCN(CC)CCNC(=O)c1ccc(NC(C)=O)cc1` [acecainide], for which the percent viability is 152%.

As to `O=C(O)CSCC(=O)NC1CCSC1=O` (configuration not stated) [erdosteine], the percent viability amounted to 181%.

Turning to `CCOC(=O)NNC(C)c1ccccc1` (configuration not stated) [carbenzide], the percent viability is 121%.

In the case of `Cc1onc(-c2c(Cl)cccc2Cl)c1C(=O)N[C@@H]1C(=O)N2[C@@H]1SC(C)(C)[C@@H]2C(=O)O`, the percent viability is 150%.

As to `CC(C(=O)O)c1ccc2c(c1)[nH]c1ccc(Cl)cc12` (configuration not stated) [carprofen], the percent viability came to 290%.

For the compound `CC(C)Oc1ccc2c(=O)c(-c3ccccc3)coc2c1`, the percent viability amounted to 121%.

As for `CCCC(=O)O[C@]1(C(=O)COC(C)=O)CC[C@H]2[C@@H]3C[C@H](F)C4=CC(=O)C=C[C@]4(C)[C@@]3(F)[C@@H](O)C[C@@]21C` [difluprednate], the percent viability was 285%.
